The values that follow come from paper PMC12679550 (ACS Chemical Neuroscience, 2025).

Amino acid sequences for entries named in this document (tags omitted). A change or cut given only in a name is not applied to a line headed by its entry.
UniProt P08913: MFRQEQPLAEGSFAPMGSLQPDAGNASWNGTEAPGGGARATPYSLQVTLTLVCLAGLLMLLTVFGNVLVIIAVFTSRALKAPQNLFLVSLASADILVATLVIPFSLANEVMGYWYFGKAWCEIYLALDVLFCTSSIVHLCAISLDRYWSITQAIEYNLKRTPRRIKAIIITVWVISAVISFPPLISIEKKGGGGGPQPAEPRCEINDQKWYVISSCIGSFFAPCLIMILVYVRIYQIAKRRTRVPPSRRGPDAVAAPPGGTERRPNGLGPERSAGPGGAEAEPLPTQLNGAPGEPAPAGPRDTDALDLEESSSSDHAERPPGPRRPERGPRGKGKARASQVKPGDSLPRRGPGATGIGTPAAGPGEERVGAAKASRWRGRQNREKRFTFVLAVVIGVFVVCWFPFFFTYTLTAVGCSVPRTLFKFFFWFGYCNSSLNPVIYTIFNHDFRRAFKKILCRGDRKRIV
UniProt P32121: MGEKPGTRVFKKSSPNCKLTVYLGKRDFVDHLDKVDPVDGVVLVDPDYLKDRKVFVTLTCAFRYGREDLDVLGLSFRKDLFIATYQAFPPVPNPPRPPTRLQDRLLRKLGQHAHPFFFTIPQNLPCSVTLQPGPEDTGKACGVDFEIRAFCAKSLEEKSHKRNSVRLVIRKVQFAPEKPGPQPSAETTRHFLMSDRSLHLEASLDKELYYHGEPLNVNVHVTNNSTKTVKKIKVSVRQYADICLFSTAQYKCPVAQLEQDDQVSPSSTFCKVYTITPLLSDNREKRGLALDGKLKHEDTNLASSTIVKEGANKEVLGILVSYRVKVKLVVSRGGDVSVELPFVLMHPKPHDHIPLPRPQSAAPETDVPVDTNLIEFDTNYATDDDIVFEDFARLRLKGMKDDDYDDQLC

Read-outs that look alike come from different tables or passages of the source. These are yes or no findings as the source states them, for the method shown. In cells and extracts the contact can be indirect. For some assays here: Binding can be weak; no strength is given.

Test [1] addresses human α2A-adrenoceptor (human) (UniProt P08913).
For test [2] the target is unchanged. In words: condition: only cells treated with mitragynine or atipamezole alone, without the agonist UK 14,304; split reporter; PathHunter eXpress ADRA2A enzyme-complementation assay in CHO-K1 cells; cells treated with mitragynine or atipamezole alone (agonist mode, no UK 14,304) for 90 min at 37 °C; luminescence read-out.

Take β-arrestin2 (from UniProt P32121 1-409): the values for the binding result in test [1] and in test [2] were “binds” and “no binding”, respectively.
